The record followed here is the supplement of paper PMC11006884.

Chains of the proteins cited; added tags and fusions are not shown. Lines headed by an entry give the natural chain unless they say otherwise; changes in a name come on top.
UniProt Q9GZR2: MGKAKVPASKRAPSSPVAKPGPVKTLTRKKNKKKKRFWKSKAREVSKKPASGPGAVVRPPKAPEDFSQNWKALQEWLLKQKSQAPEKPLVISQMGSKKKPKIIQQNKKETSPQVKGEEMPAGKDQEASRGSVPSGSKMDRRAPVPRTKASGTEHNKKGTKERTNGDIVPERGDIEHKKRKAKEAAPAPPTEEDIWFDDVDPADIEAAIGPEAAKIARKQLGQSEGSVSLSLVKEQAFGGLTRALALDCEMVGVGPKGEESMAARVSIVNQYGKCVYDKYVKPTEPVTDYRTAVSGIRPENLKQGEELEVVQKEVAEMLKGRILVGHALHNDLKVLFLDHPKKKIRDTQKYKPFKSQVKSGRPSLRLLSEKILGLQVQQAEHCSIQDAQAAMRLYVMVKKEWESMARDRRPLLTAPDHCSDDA
UniProt Q9BUK6: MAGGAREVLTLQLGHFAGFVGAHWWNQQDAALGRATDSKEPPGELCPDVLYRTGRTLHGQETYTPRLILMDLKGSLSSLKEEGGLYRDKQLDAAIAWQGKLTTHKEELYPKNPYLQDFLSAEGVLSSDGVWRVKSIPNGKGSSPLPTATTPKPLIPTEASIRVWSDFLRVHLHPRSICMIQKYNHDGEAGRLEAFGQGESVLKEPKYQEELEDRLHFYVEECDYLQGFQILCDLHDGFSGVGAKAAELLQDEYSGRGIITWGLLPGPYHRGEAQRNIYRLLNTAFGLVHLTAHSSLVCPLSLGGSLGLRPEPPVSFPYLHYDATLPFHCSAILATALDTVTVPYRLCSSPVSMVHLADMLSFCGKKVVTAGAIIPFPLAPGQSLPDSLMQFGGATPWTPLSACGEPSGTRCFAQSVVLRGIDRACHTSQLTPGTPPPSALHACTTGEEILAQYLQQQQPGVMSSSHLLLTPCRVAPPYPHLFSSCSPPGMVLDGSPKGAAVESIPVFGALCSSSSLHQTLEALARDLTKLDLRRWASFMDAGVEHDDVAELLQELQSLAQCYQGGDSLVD
UniProt Q9H2G2: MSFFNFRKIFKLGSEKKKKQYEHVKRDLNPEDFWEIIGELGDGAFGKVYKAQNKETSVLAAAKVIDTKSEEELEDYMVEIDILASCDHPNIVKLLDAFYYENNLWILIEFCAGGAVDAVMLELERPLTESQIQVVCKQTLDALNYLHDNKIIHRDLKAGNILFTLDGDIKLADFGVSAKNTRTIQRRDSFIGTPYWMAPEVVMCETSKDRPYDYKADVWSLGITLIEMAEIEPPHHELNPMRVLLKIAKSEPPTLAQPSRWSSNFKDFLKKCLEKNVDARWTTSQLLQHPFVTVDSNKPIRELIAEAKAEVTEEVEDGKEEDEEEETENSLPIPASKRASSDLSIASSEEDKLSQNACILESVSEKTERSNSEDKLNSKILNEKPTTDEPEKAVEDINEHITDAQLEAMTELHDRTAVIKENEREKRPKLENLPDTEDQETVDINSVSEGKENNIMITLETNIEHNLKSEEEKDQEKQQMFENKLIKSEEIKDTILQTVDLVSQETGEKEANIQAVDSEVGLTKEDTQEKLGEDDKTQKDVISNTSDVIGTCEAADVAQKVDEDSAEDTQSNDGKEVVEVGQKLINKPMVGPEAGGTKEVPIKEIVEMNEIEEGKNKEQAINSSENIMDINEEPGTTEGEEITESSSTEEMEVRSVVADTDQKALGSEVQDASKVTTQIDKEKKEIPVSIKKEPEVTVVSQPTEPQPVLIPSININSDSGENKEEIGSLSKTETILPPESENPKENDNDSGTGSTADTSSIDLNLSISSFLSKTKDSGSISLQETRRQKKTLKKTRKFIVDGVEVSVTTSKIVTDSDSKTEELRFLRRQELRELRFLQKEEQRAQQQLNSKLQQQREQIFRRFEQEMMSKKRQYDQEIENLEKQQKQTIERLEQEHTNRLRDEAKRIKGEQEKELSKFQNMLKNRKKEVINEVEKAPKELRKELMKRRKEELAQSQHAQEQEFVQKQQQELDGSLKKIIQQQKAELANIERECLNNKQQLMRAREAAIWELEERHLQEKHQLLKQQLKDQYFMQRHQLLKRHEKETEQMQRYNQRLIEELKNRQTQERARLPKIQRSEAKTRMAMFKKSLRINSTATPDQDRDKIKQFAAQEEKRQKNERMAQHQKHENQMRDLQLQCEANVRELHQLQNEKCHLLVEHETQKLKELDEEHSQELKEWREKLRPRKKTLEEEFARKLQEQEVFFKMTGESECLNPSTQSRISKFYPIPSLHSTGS
UniProt Q9BQS8: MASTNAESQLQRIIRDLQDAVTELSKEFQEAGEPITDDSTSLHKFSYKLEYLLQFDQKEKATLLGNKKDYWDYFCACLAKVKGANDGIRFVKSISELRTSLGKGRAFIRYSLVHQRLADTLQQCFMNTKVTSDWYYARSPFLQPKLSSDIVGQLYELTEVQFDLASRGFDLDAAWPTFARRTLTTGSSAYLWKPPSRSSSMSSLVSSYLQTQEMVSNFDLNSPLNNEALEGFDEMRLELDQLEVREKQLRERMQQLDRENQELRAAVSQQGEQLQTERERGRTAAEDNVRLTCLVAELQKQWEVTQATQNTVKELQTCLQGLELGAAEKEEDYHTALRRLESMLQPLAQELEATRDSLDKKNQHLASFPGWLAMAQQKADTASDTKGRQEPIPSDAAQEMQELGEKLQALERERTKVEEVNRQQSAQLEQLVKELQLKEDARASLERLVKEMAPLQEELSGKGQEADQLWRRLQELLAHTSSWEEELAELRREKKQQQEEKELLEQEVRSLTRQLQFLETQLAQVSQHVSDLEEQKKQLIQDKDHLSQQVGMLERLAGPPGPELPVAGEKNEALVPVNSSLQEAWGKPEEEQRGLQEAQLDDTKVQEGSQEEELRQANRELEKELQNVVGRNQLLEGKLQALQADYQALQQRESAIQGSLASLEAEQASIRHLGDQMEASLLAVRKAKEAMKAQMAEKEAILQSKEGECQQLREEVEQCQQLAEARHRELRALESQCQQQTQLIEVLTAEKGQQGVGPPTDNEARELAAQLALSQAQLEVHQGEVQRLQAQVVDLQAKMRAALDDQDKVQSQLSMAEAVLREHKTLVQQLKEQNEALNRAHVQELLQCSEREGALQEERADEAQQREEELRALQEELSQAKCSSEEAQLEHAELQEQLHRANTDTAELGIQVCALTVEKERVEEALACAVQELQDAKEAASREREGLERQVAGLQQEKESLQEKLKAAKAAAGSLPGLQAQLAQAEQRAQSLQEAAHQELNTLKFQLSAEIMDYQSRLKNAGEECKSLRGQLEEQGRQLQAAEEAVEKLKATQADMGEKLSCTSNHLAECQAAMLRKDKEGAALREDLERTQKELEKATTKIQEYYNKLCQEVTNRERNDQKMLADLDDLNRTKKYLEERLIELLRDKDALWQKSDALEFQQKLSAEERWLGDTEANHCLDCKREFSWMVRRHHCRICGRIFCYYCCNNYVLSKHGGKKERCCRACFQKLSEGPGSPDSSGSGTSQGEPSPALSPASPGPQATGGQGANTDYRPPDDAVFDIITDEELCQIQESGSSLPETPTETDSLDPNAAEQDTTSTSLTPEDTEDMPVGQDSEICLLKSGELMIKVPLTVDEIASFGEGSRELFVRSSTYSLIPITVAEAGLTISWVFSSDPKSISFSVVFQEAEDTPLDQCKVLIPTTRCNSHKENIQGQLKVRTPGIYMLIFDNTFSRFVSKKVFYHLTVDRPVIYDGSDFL
UniProt Q9BRR8: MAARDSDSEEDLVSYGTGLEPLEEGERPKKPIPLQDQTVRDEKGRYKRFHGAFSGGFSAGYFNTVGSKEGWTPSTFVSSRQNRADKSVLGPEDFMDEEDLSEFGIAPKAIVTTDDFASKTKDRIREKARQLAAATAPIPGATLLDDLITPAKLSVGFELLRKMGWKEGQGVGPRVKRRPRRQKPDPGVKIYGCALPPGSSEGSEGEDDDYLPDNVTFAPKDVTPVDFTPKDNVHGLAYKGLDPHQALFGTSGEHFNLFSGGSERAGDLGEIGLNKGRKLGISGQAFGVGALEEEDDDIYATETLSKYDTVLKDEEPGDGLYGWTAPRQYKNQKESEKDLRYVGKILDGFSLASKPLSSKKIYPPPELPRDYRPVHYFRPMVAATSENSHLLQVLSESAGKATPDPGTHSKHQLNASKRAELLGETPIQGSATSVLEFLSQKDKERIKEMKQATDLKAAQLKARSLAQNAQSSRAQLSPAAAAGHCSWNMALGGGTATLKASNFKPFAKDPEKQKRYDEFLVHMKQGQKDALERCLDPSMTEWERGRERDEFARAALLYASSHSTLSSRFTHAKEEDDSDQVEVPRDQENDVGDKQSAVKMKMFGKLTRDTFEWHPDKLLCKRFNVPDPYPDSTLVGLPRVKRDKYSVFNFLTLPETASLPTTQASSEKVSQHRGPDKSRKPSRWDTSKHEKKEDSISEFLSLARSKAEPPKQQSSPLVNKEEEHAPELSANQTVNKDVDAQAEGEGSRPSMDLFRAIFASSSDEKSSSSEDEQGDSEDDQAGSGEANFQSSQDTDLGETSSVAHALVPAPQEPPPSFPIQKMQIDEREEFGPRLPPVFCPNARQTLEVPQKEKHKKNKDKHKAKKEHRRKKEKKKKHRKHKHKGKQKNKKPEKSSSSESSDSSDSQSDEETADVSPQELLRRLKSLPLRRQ
UniProt Q9BV44: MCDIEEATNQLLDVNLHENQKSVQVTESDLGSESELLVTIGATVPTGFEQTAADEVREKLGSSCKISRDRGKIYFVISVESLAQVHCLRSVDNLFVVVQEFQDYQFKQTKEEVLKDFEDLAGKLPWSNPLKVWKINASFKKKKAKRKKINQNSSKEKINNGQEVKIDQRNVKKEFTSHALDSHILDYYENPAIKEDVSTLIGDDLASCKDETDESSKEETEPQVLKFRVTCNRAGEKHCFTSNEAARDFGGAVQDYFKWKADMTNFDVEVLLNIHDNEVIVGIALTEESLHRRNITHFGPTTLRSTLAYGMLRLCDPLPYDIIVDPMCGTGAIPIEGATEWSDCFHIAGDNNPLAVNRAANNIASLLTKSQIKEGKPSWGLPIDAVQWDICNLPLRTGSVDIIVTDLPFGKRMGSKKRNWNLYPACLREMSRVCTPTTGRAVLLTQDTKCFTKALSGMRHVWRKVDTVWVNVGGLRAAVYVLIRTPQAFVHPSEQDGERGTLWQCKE
UniProt Q9BZE9, whole entry, looked up: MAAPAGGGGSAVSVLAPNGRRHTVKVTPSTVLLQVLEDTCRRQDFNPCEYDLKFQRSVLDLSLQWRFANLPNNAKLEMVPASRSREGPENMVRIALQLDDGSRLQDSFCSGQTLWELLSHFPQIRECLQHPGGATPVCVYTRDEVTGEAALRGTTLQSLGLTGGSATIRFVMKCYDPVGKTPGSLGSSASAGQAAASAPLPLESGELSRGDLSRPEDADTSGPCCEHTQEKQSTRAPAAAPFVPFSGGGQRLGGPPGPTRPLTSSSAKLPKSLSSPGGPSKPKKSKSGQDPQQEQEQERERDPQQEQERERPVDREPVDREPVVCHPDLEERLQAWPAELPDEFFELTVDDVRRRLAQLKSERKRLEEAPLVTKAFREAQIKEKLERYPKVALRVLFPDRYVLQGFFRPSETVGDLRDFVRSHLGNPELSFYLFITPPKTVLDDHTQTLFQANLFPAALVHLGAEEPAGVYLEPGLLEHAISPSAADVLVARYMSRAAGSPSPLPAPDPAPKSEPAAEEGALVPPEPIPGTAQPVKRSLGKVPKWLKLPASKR
UniProt Q9GZR7: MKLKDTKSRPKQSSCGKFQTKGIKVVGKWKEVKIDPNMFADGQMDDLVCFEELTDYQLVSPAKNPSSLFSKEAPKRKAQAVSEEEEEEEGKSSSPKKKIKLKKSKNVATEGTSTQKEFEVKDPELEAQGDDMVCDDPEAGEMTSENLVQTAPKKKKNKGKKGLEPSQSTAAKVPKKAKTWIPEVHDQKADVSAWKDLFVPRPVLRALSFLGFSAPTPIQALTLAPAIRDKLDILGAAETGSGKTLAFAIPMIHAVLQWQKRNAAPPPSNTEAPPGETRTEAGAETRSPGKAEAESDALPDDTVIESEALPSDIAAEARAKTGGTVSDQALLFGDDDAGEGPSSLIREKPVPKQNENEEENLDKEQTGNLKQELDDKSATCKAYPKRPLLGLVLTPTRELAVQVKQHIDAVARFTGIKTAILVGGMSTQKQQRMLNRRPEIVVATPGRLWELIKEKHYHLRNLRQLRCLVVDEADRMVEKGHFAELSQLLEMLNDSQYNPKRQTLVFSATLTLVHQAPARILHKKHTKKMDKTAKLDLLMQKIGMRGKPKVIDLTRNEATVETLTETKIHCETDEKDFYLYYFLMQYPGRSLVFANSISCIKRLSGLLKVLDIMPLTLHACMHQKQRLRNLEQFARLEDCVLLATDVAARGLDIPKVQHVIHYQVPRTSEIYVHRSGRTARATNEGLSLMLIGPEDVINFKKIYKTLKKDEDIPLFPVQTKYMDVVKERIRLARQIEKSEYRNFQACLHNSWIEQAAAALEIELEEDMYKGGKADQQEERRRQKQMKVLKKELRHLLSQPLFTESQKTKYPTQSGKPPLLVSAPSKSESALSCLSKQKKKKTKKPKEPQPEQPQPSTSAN

The entries are a selection whose mix differs from that of the whole data set.

Compound in this assay: COC(=O)C#Cc1ccccc1 [methyl 3-phenylpropiolate]
The assay is described as follows: log2 ratio of iodoacetamide-alkyne labeling of the cysteine site, DMSO over compound (competition); higher = stronger covalent engagement of the cysteine by the compound, active = 1 or more. Particulars: 500 µM; treatment time 1 h; system: HEK293T cell lysate. In short, it runs like this:
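HEK293T lysate (2 mg/mL) was incubated with electrophile (500 µM) or vehicle for 1 h at ambient temperature and then with iodoacetamide alkyne for 1 h. Labelled proteins were clicked to sCIP-TMT reagents, pooled, digested, enriched on streptavidin and measured by Orbitrap Eclipse LC-MS/MS with FAIMS, with FragPipe quantification. The per-cysteine log2 competition ratio is mean control-channel reporter intensity over mean compound-channel reporter intensity. Across three replicates with duplicate channels, cysteines quantified in only one replicate were excluded.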
For REXO4 C382 (UniProt Q9GZR2), the “log2 ratio of iodoacetamide-alkyne labeling” value (“log2 ratio” for short) is active: 1.23.

Consider AMBRA1 C571 (UniProt Q9C0C7), for which the “log2 ratio” value is inactive: 0.257.

On to RPAP1 C185 (UniProt Q9BWH6), for which the “log2 ratio” value was inactive: 0.366.

For the target GINS4 C53 (UniProt Q9BRT9), the “log2 ratio” value was inactive: -0.0159.

Regarding MSTO1 C485 (UniProt Q9BUK6), the “log2 ratio” value is inactive: 0.318.

On to VPS11 C890 (UniProt Q9H270), for which the “log2 ratio” value was inactive: 0.265.

With FTO C326 (UniProt Q9C0B1), the “log2 ratio” value is inactive: 0.0865.

In the case of TNKS1BP1 C1324 (UniProt Q9C0C2), the “log2 ratio” value is active: 1.18.

On to DIDO1 C350 (UniProt Q9BTC0), for which the “log2 ratio” value is inactive: 0.192.

As to UniProt Q9BTY7_C51, the “log2 ratio” value was inactive: 0.975.

Turning to EGLN1 C127 (UniProt Q9GZT9), the “log2 ratio” value is inactive: 0.628.

As for PDCD2L C100 (UniProt Q9BRP1), the “log2 ratio” value is inactive: 0.00256.

In the case of MRPL37 C188 (UniProt Q9BZE1), the “log2 ratio” value was inactive: 0.241.

In the case of SSBP4 C81 (UniProt Q9BWG4), the “log2 ratio” value was inactive: 0.752.

With UniProt Q9BSD7_C110, the “log2 ratio” value is inactive: 0.358.

Regarding NUSAP1 C256 (UniProt Q9BXS6), the “log2 ratio” value was inactive: 0.373.

For PUS7L C267 (UniProt Q9H0K6), the “log2 ratio” value is inactive: 0.462.

As to PUS7L C142 (UniProt Q9H0K6), the “log2 ratio” value was inactive: -0.0378.

As for SLK C993 (UniProt Q9H2G2), the “log2 ratio” value was inactive: -0.0376.

As for SLC4A1AP C730 (UniProt Q9BWU0), the “log2 ratio” value was active: 1.48.

As to TARS2 C322 (UniProt Q9BW92), the “log2 ratio” value was inactive: 0.0828.

TBCD C625 (UniProt Q9BTW9): the “log2 ratio” value was inactive: -0.172.

Turning to NUDT9 C207 (UniProt Q9BW91), the “log2 ratio” value was inactive: 0.129.

In the case of NUP85 C515 (UniProt Q9BW27), the “log2 ratio” value is inactive: 0.308.

Turning to ZYG11B C643 (UniProt Q9C0D3), the “log2 ratio” value is inactive: 0.222.

Consider ILKAP C135 (UniProt Q9H0C8), for which the “log2 ratio” value was inactive: -0.165.

NSD3 C173 (UniProt Q9BZ95): the “log2 ratio” value is inactive: 0.233.

Take FYCO1 C318 (UniProt Q9BQS8): the “log2 ratio” value is inactive: 0.119.

Take DIDO1 C856 (UniProt Q9BTC0): the “log2 ratio” value is inactive: 0.609.

In the case of GPATCH1 C534 (UniProt Q9BRR8), the “log2 ratio” value was inactive: 0.242.

Regarding THUMPD3 C391 (UniProt Q9BV44), the “log2 ratio” value was inactive: 0.0399.

Regarding MYBBP1A C968 (UniProt Q9BQG0), the “log2 ratio” value is inactive: 0.274.

Regarding UniProt Q9BXV9_C21, the “log2 ratio” value is inactive: 0.0587.

On to TBCD C234 (UniProt Q9BTW9), for which the “log2 ratio” value was inactive: 0.281.

Consider ASPSCR1 C109 (UniProt Q9BZE9), for which the “log2 ratio” value was inactive: 0.438.

On to RNF126 C32 (UniProt Q9BV68), for which the “log2 ratio” value was inactive: 0.0504.

Regarding DDX24 C639 (UniProt Q9GZR7), the “log2 ratio” value was inactive: 0.032.
